A short description of this assay: qHTS Assay for Lipid Storage Modulators in Drosophila S3 Cells.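 On cell number change: cells counted by Cell Tracker Red CMTPX staining in the red channel.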 The following applies: BODIPY lipid droplet fluorescence, 18-24 h; for cell number change: measured here: cell count max response, cells fed with added oleic acid. The procedure, abridged: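 Laser-scanning cytometry quantifies lipid droplet accumulation (500–530 nm total intensity; droplet/cell object ratio) in oleic acid-fed (400 uM added) Drosophila S3 cells treated with a concentration series. 20 uM Triacsin C defined 100% inhibition.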
On the technique in general: qHTS replaces the single test concentration by a dilution series.

The mark [1] stands for this setting: measured here: lipid fluorescence (Fed channel) AC50, cells fed with added oleic acid.
Where [2] appears, read: measured here: cell number channel AC50, cells fed with added oleic acid.

Molecules are shown by their SMILES. The list shows a part of the results. The main result of the screen is listed elsewhere. These columns were measured beside it and carry no call. The list favours compounds with an active or inconclusive main result. Words in brackets tell the shape of the fitted curve; partial curves, single points and poor fits give uncertain potencies.

By AC50 is commonly meant the midpoint of the concentration-response curve, whichever way the signal moves.

Regarding `C1CCCCCC2(CCCCC1)OCC(CN1CCOCC1)O2` (stereo not drawn), the cell number change was found to be 0.0359%.
In the case of `C=CCSc1nnc(-c2c[nH]c3ccccc23)n1CCOC`, the cell number change was -16.1%. The AC50 under setting [1] is 0.0731 µM [falling, full curve, poor fit].
Consider `C#CCOCCOCCOCCNc1nc(N2CCN(C(=O)Cn3cc(CCCN=C(N)N)nn3)CC2)nc(N2CCN(C(=O)[C@H](CCCCN)n3cc(CCC(=O)O)nn3)CC2)n1`, for which the cell number change came out at 22%.
On to `CC(=O)N[C@@H]1[C@@H](O)[C@@H]2OC(c3ccccc3)OC[C@H]2O[C@@H]1N=[N+]=[N-]` (stereo partly drawn), for which the cell number change was found to be 2.2%. For the same molecule, under setting [1], the AC50 is 20.6 µM [rising, single point].
Turning to `Cc1cccc(C(=O)Oc2ccc(/C=N/O)cc2)c1`, the cell number change was -44.4%. For the same molecule, the AC50 under setting [2] was 29.1 µM [falling, single point]. In addition, under setting [1], the AC50 was 29.1 µM [falling, single point].
As for `O=C(Oc1ccccc1[N+](=O)[O-])c1cccnc1`, the cell number change is -19.8%.
Consider `COc1ccc(NC(=O)CSc2nnc3n2CCCCC3)cc1`, for which the cell number change was 31.2%. Further, under setting [2], the AC50 is 5.8 µM [rising, full curve, poor fit].
Regarding `CSc1ncc(CN2CCCC(C(=O)Nc3ccc(-c4ccco4)cc3)C2)cn1` (stereo not drawn), the cell number change was -13.4%.
As to `Cc1cccc(CC2CC(=O)N(c3ccc(C)cc3Br)C2=O)c1` (stereo not drawn), the cell number change is -32%. For the same molecule, the AC50 under setting [2] was 14.6 µM [falling, single point]. In addition, the concentration at half-maximal activity (AC50) under setting [1] is 0.58 µM [rising, single point].
For `CC(=O)N=c1sc(C(C)(C)C)c(C)n1C`, the cell number change was -4.68%. Further, the concentration at half-maximal activity (AC50) under setting [1] is 1.84 µM [rising, partial curve].
For `CCCCCCCn1c2c(c(=N)c3ccccc31)CCC2`, the cell number change was -66.1%. The AC50 under setting [2] was 5.8 µM [falling, full curve]. Further, the AC50 under setting [1] was 8.2 µM [falling, partial curve].
As to `O=C(O)C1=C(C(=O)N2CCN(C(=O)c3ccco3)CC2)CCCC1`, the cell number change was -1.29%. Moreover, the AC50 under setting [1] was 18.4 µM [rising, partial curve, poor fit].
With `Cc1ccc(NC(=O)c2csc(-c3ccccc3)c2C)cc1`, the cell number change was -2.39%. Also, under setting [1], the AC50 is 6.51 µM [falling, single point].
As for `COC(=O)C1C(=O)OC(C)(C)C1C(C)C(=O)c1ccccc1` (stereo not drawn), the cell number change is -32.4%. For the same molecule, under setting [2], the AC50 is 3.66 µM [falling, full curve].
As to `COc1ccc(C(=O)OCCOc2cccc(Cl)c2)cc1S(=O)(=O)N1CCOCC1`, the AC50 under setting [1] is 6.51 µM [falling, single point].
Same read-out and setting: the figure for `C/C(=N/NC(=O)c1ccc(O)cc1)c1cccc([N+](=O)[O-])c1` is 6.51 µM [rising, single point].
With `CCc1c(C(=O)NCCc2cccc(C)c2)[nH]c(C)c1C(C)=O`, the cell number change was 11.1%. For the same molecule, the AC50 under setting [1] was 0.461 µM [falling, full curve, poor fit].
For `CCCc1cnc(NCCNCC(O)COc2ccc(Cl)c(Cl)c2)nc1` (stereo not drawn), the cell number change was -51.5%. Besides, the AC50 under setting [2] was 29.1 µM [falling, single point]. In addition, under setting [1], the AC50 is 18.4 µM [falling, single point].
On to `Cc1ccc(/C=C/C(=O)OCC(=O)N(CC(C)C)c2c(N)n(Cc3ccccc3)c(=O)[nH]c2=O)o1`, for which the cell number change is -12.1%. The AC50 under setting [1] was 0.164 µM [falling, full curve, poor fit].
As for `CN(C)CCCN(C(=O)c1ccc2c(c1)OCCO2)c1nc2ccc(Cl)cc2s1`, the cell number change is 8.44%. The concentration at half-maximal activity (AC50) under setting [1] is 0.231 µM [rising, full curve].
In the case of `CCC(=O)NC(Nc1ccccn1)(C(=O)OC)C(F)(F)F` (stereo not drawn), the cell number change was -8.14%. Also, the AC50 under setting [1] was 0.259 µM [rising, full curve, poor fit].
On to `Cc1ccc(-c2csc(NC(=O)c3c(C)noc3C)n2)cc1C`, for which the cell number change is -12.1%. Under setting [1], the AC50 was 29.1 µM [falling, single point].
On to `O=C(NNC(=O)c1ccc(-n2cncn2)c([N+](=O)[O-])c1)c1cccc(Cl)c1`, for which the cell number change came out at 35%. Also, the AC50 under setting [2] is 6.51 µM [rising, partial curve].
In the case of `CCc1noc(C)c1C(=O)Nc1cc(Cl)ccc1N1CCOCC1`, the cell number change turned out to be 40%. Moreover, the AC50 under setting [2] was 23.1 µM [rising, single point]. Moreover, under setting [1], the AC50 is 16.4 µM [rising, single point].
With `FC(F)(F)c1ccccc1C1C2=C(Nc3ncnn31)c1ccccc1CCC2` (stereo not drawn), the cell number change was -3.99%. In addition, the AC50 under setting [1] was 0.82 µM [rising, single point].
As for `CCCC(=O)Oc1ccc(C2NC(=O)c3ccccc3O2)cc1` (stereo not drawn), the cell number change worked out at 18.2%.
Consider `CCN(Cc1cnn(C)c1)Cc1nc(Cc2ccccc2Cl)no1`, for which the cell number change is 6.91%. For the same molecule, the AC50 under setting [1] is 29.1 µM [rising, single point].
In the case of `CN(CC(=O)Nc1ccccc1C(F)(F)F)C(=O)c1cc2c(s1)CCCCC2`, the cell number change is 0.905%. For the same molecule, under setting [1], the AC50 was 5.17 µM [falling, single point].
Take `c1ccc(-n2ncc3c2ncn2nc(CSc4nc5ccccc5s4)nc32)cc1`: the cell number change was -47.4%. For the same molecule, the AC50 under setting [2] is 1.84 µM [falling, partial curve]. Further, the AC50 under setting [1] was 3.26 µM [rising, partial curve, poor fit].
Consider `COc1ccc(N2CCN(C(=S)Nc3ccccc3OC)CC2)cc1`, for which the cell number change worked out at 27.7%. Moreover, under setting [2], the AC50 was 0.00517 µM [rising, full curve, poor fit]. For the same molecule, the AC50 under setting [1] is 6.51 µM [rising, single point].
On to `Cc1cccc(NS(=O)(=O)c2c(C(=O)N3CCCC3)c(C)n(C)c2C)c1`, for which the cell number change was -10.1%.
Take `Nc1cc(C(=O)N/N=C/c2cccc([N+](=O)[O-])c2)n[nH]c1=O`: the cell number change was found to be 15.2%. Besides, the AC50 under setting [1] was 20.6 µM [rising, single point].
With `Cc1ccc(S(=O)(=O)Nc2ccncc2)c(C)c1N(C)S(=O)(=O)c1ccc(F)cc1`, the AC50 under setting [1] is 0.231 µM [falling, full curve, poor fit].
`Cc1ccc(Nc2nc(Oc3ccc(=O)[nH]n3)nc(N(C)C)n2)cc1`: the cell number change was 30.3%. For the same molecule, the AC50 under setting [2] is 0.651 µM [rising, full curve, poor fit]. Besides, the AC50 under setting [1] is 0.58 µM [rising, single point].
With `CCCC(=O)Nc1ccccc1N1CCN(C(=O)C(C)C)CC1`, the cell number change is -2.51%. The AC50 under setting [1] was 0.0231 µM [rising, full curve, poor fit].
In the case of `O=C(NC1CCCC1)C(c1cccnc1)N(C(=O)c1csnn1)c1ccc(F)cc1` (stereo not drawn), the cell number change is -26.7%. For the same molecule, under setting [1], the AC50 is 6.51 µM [rising, single point].
As to `Cc1cc(C)c(NC(=O)Nc2ccccc2)c(C)n1`, the cell number change is -3.44%. Also, the concentration at half-maximal activity (AC50) under setting [1] is 0.164 µM [rising, full curve, poor fit].
